Experimental data: PMC5675868

System: T1, Aux1LS20-His6 (p56) (Bacillus subtilis plasmid pLS20cat)
T1 sequence (looked up): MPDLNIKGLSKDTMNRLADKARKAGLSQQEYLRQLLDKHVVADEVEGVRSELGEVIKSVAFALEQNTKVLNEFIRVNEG
Assay: EMSA
Conditions: 90 nM protein; EMSA: 20 mM Tris-HCl pH 8, 1 mM EDTA, 5 mM MgCl2, 0.5 mM DTT, 100 mM KCl, 10% glycerol, 0.05 mg/ml BSA; 20 min 30°C then 10 min on ice; 2% agarose, 0.5x TBE, 4°C; recombinant protein; residues 1-79; protein details: C-terminal His6; probe letters rebuilt from the primers and the genome

Sequence	binding result
CGGCATTTGTTAACGCTCCTTTTCATCGATTTCTGCACATTACTTTGCAACGATCTGTTCAAATAAGTGTTTCTTTTTCCAAGGCTTTTTGCGGCAGCAAAAAGCCGGCCCCCGATTCCGAAGGAAGGAGGGGGTGGAAAAGGAAAGAGCATAAGGGGAAACTGGCACCATTTGCATGGTGAAACCGCAGTGCGGTTTGT (double strand) [F30]	no binding
ACGAGCAAAGAAATGCTAGGTGAACTTGAAAAACGGAATGAATTATTGAAGAAAAGAAAGAGCAATCTCGTCATCGAAGACTAAATTTCTGTATGGAAAACAGTTATTTTTCGTGTGCATAAAATAAAGATTTATGTGCATTTAGTTCTAAATCACCTAAATAATGGTTGAACATAAATGTTTTTTTTATGTGCATTCAGC (double strand) [F21]	no binding
TGAGAAAGTCCTGCCTTCCTCGCTTTATCCGCAAGCCTATTCATTGTATCTTTTGAAAGACCTTTGATGTTGAGATCCGGCATTTGTTAACGCTCCTTTTCATCGATTTCTGCACATTACTTTGCAACGATCTGTTCAAATAAGTGTTTCTTTTTCCAAGGCTTTTTGCGGCAGCAAAAAGCCGGCCCCCGATTCCGAAGG (double strand) [F33]	no binding
GCAAATGGTGCCAGTTTCCCCTTATGCTCTTTCCTTTTCCACCCCCTCCTTCCTTCGGAATCGGGGGCCGGCTTTTTGCTGCCGCAAAAAGCCTTGGAAAAAGAAACACTTATTTGAACAGATCGTTGCAAAGTAATGTGCAGAAATCGATGAAAAGGAGCGTTAACAAATGCCGGATCTCAACATCAAAGGTCTTTCAA (double strand) [F31]	no binding
GCTCTTTCCTTTTCCACCCCCTCCTTCCTTCGGAATCGGGGGCCGGCTTTTTGCTGCCGCAAAAAGCCTTGGAAAAAGAAACACTTATTTGAACAGATCGTTGCAAAGTAATGTGCAGAAATCGATGAAAAGGAGCGTTAACAAATGCCGGATCTCAACATCAAAGGTCTTTCAAAAGATACAATGAATAGGCTTGCGGA (double strand) [F32]	no binding

Negatives hold for the conditions tested. At least one verdict rests on a figure or table, not on a statement of the authors. Where a protein sequence is shown, tags need not be part of it.
